# Measurements from BindingDB's records for PubMed 8301582 (Neuroscience Research Centre, 1994).
# The chains behind the UniProt entries cited, without tags or fusion partners. A line that says so, or that is headed by a name, gives the form on record, which may keep a tag or linker.
# UniProt P35462, as listed by the source: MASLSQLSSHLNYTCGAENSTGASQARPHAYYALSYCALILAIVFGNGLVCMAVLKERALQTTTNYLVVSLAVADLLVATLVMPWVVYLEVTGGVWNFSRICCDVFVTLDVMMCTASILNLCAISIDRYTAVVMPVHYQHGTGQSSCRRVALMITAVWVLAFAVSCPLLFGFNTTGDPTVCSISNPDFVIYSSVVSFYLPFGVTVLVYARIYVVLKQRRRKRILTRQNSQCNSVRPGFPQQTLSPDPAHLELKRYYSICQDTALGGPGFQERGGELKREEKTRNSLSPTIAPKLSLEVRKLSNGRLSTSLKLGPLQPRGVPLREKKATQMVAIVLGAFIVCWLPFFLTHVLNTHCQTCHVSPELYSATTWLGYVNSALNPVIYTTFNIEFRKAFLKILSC
# Target: D(3) dopamine receptor (Homo sapiens, UniProt P35462)
smiles,measurement,value
O=c1[nH]c2ccccc2n1CCCN1CCC(n2c(=O)[nH]c3cc(Cl)ccc32)CC1,Ki,2.9 nM
